Test results from paper PMC9168619 (The Journal of Biological Chemistry, 2022).
These are yes or no findings as the source states them, for the method shown. In cells and extracts the contact can be indirect. Some binding calls cover weakened binding; strength is not graded here.

Amino acid sequences for entries named in this document (tags omitted). Residues count along the entry.
UniProt P35658: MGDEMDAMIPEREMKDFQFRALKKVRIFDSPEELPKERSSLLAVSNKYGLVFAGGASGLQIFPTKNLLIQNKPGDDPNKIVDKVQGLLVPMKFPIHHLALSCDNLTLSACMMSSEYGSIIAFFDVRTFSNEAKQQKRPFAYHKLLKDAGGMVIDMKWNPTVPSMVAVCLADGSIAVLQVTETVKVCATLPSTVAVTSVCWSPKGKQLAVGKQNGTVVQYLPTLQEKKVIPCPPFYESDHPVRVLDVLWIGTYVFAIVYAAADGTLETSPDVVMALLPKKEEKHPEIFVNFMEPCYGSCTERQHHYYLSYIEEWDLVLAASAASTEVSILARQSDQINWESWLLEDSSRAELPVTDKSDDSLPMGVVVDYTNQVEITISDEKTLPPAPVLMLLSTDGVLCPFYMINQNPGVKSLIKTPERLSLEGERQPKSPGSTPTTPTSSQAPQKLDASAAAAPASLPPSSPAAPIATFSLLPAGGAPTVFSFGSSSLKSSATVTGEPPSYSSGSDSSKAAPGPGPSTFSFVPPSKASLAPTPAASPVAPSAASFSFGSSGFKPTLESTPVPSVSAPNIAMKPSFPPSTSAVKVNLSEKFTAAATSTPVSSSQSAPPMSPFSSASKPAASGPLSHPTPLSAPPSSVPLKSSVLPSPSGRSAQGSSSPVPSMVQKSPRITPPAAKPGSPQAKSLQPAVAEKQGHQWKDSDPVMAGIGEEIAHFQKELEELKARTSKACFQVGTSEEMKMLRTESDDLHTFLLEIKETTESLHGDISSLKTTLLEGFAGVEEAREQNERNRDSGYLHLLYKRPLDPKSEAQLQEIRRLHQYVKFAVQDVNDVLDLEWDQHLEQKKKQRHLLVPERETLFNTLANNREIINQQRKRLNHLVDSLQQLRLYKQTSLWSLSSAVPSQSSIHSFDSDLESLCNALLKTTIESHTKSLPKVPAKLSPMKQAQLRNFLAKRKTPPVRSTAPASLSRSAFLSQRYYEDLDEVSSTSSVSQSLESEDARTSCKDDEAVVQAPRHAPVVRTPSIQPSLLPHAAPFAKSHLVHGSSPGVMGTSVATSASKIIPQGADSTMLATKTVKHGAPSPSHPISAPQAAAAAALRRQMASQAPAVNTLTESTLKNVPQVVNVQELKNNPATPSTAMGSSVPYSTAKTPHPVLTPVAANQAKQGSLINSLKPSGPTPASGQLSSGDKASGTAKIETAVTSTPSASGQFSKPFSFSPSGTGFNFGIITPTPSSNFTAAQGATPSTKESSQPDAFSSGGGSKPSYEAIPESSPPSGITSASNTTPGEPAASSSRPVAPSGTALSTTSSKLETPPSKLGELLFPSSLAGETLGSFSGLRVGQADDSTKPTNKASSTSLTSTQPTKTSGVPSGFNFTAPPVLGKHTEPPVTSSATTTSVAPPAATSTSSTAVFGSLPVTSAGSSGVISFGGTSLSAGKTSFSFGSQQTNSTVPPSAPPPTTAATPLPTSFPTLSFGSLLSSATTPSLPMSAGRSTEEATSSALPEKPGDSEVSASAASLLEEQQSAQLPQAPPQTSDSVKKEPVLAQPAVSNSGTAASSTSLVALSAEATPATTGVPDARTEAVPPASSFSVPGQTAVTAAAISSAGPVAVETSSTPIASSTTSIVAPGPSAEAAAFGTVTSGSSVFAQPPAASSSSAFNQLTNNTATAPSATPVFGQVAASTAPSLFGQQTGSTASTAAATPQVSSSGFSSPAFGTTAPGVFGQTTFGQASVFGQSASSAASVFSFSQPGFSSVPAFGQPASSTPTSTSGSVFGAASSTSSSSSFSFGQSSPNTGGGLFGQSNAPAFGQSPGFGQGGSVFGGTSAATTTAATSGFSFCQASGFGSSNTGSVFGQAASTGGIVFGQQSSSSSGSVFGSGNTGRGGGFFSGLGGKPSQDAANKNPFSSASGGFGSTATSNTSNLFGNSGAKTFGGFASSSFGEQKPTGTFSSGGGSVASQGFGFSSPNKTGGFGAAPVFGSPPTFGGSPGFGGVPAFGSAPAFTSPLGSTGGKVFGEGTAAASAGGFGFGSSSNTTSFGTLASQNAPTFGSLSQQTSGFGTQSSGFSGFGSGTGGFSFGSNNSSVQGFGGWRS
UniProt P52948, residues 1-880: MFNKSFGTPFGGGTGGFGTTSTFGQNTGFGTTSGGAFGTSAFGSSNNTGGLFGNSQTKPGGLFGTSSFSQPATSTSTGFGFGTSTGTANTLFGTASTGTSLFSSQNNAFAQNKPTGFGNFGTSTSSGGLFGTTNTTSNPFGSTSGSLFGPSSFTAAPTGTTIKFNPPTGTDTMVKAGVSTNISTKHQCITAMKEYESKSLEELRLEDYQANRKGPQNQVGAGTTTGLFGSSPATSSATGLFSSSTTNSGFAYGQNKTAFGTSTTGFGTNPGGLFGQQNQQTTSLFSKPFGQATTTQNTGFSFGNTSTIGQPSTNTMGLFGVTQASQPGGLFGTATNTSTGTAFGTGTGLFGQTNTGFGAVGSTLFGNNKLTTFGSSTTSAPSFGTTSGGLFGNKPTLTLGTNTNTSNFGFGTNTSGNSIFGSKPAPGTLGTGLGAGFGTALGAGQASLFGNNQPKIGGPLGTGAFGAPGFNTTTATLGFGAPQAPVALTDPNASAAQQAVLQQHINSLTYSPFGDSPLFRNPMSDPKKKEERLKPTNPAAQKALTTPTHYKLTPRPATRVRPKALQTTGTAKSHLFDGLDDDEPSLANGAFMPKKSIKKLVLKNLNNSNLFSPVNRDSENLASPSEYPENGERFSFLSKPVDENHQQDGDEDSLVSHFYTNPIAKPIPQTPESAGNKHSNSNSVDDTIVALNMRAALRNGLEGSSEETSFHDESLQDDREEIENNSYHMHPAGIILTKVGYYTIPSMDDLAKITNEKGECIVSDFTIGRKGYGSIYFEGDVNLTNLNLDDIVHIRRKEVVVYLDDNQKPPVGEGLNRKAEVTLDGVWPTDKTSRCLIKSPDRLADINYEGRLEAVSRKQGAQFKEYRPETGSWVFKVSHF

Molecular target: Nup214 (human (endogenous in HeLa)) (UniProt P35658)
Test: co-IP

**Q.** Nup98 (from UniProt P52948 1-880) was tested. Which binding did it give?
**A.** binds
